## Melanoma cell counts after drug treatment

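Human melanoma cell lines in 1,536-well plates were treated with a pair of drugs for 72 h, then fixed, stained and imaged. Each value is the count of nuclei relative to DMSO-treated wells, in %, so that 100 equals the control. Every drug was used at one fixed concentration, the lower of two screened (a fifth of the higher). These are primary screening values without error estimates.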 An unselected part of the screen is shown. A dash means that no value is listed here.

Drug key:
decitabine: Nc1ncn([C@H]2C[C@H](O)[C@@H](CO)O2)c(=O)n1 at 0.1 µM
CHIR-265: Cn1c(Nc2ccc(C(F)(F)F)cc2)nc2cc(Oc3ccnc(-c4ncc(C(F)(F)F)[nH]4)c3)ccc21 at 0.08 µM
BMS-536924: Cc1cc(N2CCOCC2)cc2[nH]c(-c3c(NC[C@@H](O)c4cccc(Cl)c4)cc[nH]c3=O)nc12 at 0.2 µM
ZM336372: Cc1ccc(NC(=O)c2cccc(N(C)C)c2)cc1NC(=O)c1ccc(O)cc1 at 2 µM
FK866: O=C(/C=C/c1cccnc1)NCCCCC1CCN(C(=O)c2ccccc2)CC1 at 0.01 µM
sorafenib: CNC(=O)c1cc(Oc2ccc(NC(=O)Nc3ccc(Cl)c(C(F)(F)F)c3)cc2)ccn1 at 0.4 µM
OSU-03012: NCC(=O)Nc1ccc(-n2nc(C(F)(F)F)cc2-c2ccc3c(ccc4ccccc43)c2)cc1 at 1 µM
veliparib: C[C@]1(c2nc3c(C(N)=O)cccc3[nH]2)CCCN1 at 1.4 µM
stibogluconate: O=C(O)[C@@H]1[O][Sb](=[O])([O][Sb]2(=[O])[O][C@H]([C@H](O)CO)[C@H](O)[C@H](C(=O)O)[O]2)[O][C@H]([C@H](O)CO)[C@@H]1O (stereo partly shown) at 2 µM
MK-1775: C=CCn1c(=O)c2cnc(Nc3ccc(N4CCN(C)CC4)cc3)nc2n1-c1cccc(C(C)(C)O)n1 at 0.02 µM
cisplatin: N.N.[Cl][Pt][Cl] at 1.6 µM
BI-78D3: O=c1[nH]nc(Sc2ncc([N+](=O)[O-])s2)n1-c1ccc2c(c1)OCCO2 at 0.2 µM
palbociclib: CC(=O)c1c(C)c2cnc(Nc3ccc(N4CCNCC4)cn3)nc2n(C2CCCC2)c1=O at 0.04 µM
vincristine: CC[C@]1(O)C[C@H]2CN(CCc3c([nH]c4ccccc34)[C@@](C(=O)OC)(c3cc4c(cc3OC)N(C=O)[C@H]3[C@@](O)(C(=O)OC)[C@H](OC(C)=O)[C@]5(CC)C=CCN6CC[C@]43[C@@H]65)C2)C1 at 0.0001 µM
tanespimycin: C=CCNC1=C2C[C@@H](C)C[C@H](OC)[C@H](O)[C@@H](C)/C=C(\C)[C@H](OC(N)=O)[C@@H](OC)/C=C\C=C(/C)C(=O)NC(=CC1=O)C2=O at 0.002 µM
vorinostat: O=C(CCCCCCC(=O)Nc1ccccc1)NO at 0.08 µM
dovitinib: CN1CCN(c2ccc3nc(-c4c(N)c5c(F)cccc5[nH]c4=O)[nH]c3c2)CC1 at 0.1 µM
lapatinib: CS(=O)(=O)CCNCc1ccc(-c2ccc3ncnc(Nc4ccc(OCc5cccc(F)c5)c(Cl)c4)c3c2)o1 at 0.8 µM
bortezomib: CC(C)C[C@H](NC(=O)[C@H](Cc1ccccc1)NC(=O)c1cnccn1)B(O)O at 0.001 µM

| # | Pair | C32 | A101D | A2058 | COLO 792 | A375 |
|---|---|---|---|---|---|---|
| 1 | tanespimycin + palbociclib | 69.2 | 79.6 | 118 | 57.9 | 63.6 |
| 2 | palbociclib + sorafenib | 72.8 | 88.6 | 105 | 77.4 | 66.6 |
| 3 | veliparib + OSU-03012 | 109 | 81.9 | 82.4 | - | 16.7 |
| 4 | BI-78D3 + bortezomib | 91.7 | 71.6 | 95.5 | - | 102 |
| 5 | lapatinib + CHIR-265 | 83.3 | 58.0 | 86.0 | 43.8 | 51.3 |
| 6 | tanespimycin + dovitinib | 110 | 104 | 103 | 110 | 87.9 |
| 7 | ZM336372 + dovitinib | 87.0 | 78.9 | 98.4 | - | 84.0 |
| 8 | veliparib + BI-78D3 | 120 | 97.2 | 104 | - | 89.4 |
| 9 | MK-1775 + sorafenib | 91.3 | 82.9 | 106 | - | 103 |
| 10 | BI-78D3 + ZM336372 | 97.7 | 85.3 | 110 | - | 91.3 |
| 11 | MK-1775 + FK866 | 94.8 | 68.5 | 98.1 | - | 43.8 |
| 12 | BMS-536924 + veliparib | 91.1 | 87.5 | 85.5 | - | 75.2 |
| 13 | BMS-536924 + tanespimycin | 68.9 | 93.6 | 92.7 | - | 86.4 |
| 14 | palbociclib + dovitinib | 87.8 | 75.1 | 97.4 | 64.5 | 59.4 |
| 15 | decitabine + dovitinib | 88.2 | 96.1 | 82.7 | - | 73.1 |
| 16 | tanespimycin + BI-78D3 | 82.9 | 91.9 | 91.5 | - | 101 |
| 17 | stibogluconate + dovitinib | 102 | 101 | 93.3 | - | 93.1 |
| 18 | palbociclib + lapatinib | 77.8 | 84.1 | 95.6 | - | 61.4 |
| 19 | cisplatin + ZM336372 | 111 | 84.3 | 105 | - | 99.9 |
| 20 | BI-78D3 + dovitinib | 92.4 | 113 | 84.5 | - | 105 |
| 21 | vincristine + vorinostat | 86.5 | 86.7 | 64.7 | - | 112 |
| 22 | ZM336372 + vincristine | 74.2 | 53.4 | 19.5 | - | 54.0 |
| 23 | veliparib + ZM336372 | 92.9 | 79.0 | 79.4 | - | 83.4 |
| 24 | vorinostat + CHIR-265 | 68.0 | 57.9 | 89.2 | - | 83.9 |
| 25 | MK-1775 + vincristine | 82.9 | 52.1 | 56.9 | - | 59.0 |

Some entries from above, unchanged:

| Pair | C32 | A101D | A2058 | COLO 792 | A375 |
|---|---|---|---|---|---|
| cisplatin + ZM336372 | 111 | 84.3 | 105 | - | 99.9 |
| stibogluconate + dovitinib | 102 | 101 | 93.3 | - | 93.1 |

Values as published with doi:10.1371/journal.pone.0140310, rounded.